PubChem BioAssay AID1259280 – Sanger Institute | 2017

Purpose: 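Kinome siRNA screen for partners that synergise with BYL719, cetuximab or trametinib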 (primary screen)
System: human SNU407 colorectal cancer cells
Reagents: siRNA pool against human genes
Challenge: anchor drugs BYL719 at 1 µM, cetuximab at 5 µg/ml or trametinib at 10 nM, or DMSO vehicle alone; exposure time not given
Measurement: 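Viability per well scaled to a non-targeting pool and averaged over replicates, with a robust z-score from controls and a synergy score per anchor drug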
Direction: viability z-score, no drug: higher = more cells survive the knock-down
Call rule: 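Essential calls require a no-drug robust viability z-score under -3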
Meaning of the calls: active = essential (knock-down alone kills cells); inactive = no change without drug
Shown is a random part of 794 reagents. In the full data, 12 (1.5%) got an active call. 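Calls cover knock-down without drug only; synergy scores stand apart, values above 0.15 being treated as synergy.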 Unmarked entries are inactive. Further read-outs or replicates are left out here. No sequences are given here. The record does not give: the amount of reagent, the time to read-out.

| Target gene | viability z-score, no drug |
| --- | --- |
| DLG4 | -0.362 |
| AK5 | 0.296 |
| SRMS | -1.55 |
| CKMT2 | 0.371 |
| PIM3 | -0.358 |
| PIP5K1B | 0.901 |
| NME3 | -0.0611 |
| TAOK3 | 0.901 |
| CDC42BPG | 0.722 |
| PAK3 | -1.17 |
| AURKC | 0.402 |
| NEK7 | 0.382 |
| PIK3CB | 0.901 |
| MAP2K7 | -0.231 |
| PTK7 | -1.51 |
| TWF1 | 0.901 |
| IGF1R | -0.764 |
| LATS1 | -0.383 |
| FLT1 | 0.901 |
| MTOR | -0.117 |
| MAP3K7 | 0.901 |
| PRKAA2 | -0.357 |
| EEF2K | -2.06 |
| PIKFYVE | 0.901 |
| ADCK2 | -1.59 |
| GOLGA5 | 0.642 |

The list goes on (3 carried over from the part before).
| Target gene | viability z-score, no drug |
| --- | --- |
| PIKFYVE | 0.901 |
| ADCK2 | -1.59 |
| GOLGA5 | 0.642 |
| DGKQ | -0.592 |
| EFNA4 | 0.237 |
| TRPM7 | -0.937 |
| MAP3K11 | 0.901 |
| MYO3B | -0.0822 |
| PHKA1 | 0.901 |
| AXIN2 | -0.267 |
| KCNH8 | -0.736 |
| TAOK2 | 0.901 |
| CKM | 0.901 |
| IRAK1 | -0.945 |
| ARID1A | 0.604 |
| PRKACA | 0.848 |
| GRK6 | -0.966 |
| BMPR2 | -1.65 |
| IRAK4 | 0.351 |
| CDKN2D | 0.106 |
| CDKN2C | -0.605 |
| GUK1 | 0.747 |
| NTN4 | -0.41 |
| NME5 | 0.819 |
| DNMT3A | 0.758 |
| ALPK2 | 0.557 |
| PRKAB2 | -1.51 |
